Data published in the supplement of paper PMC9233669.
This sample is rich in variants without activity.

What was measured:
biotinyl-Met-oxazolone = assay: self-aminoacylation, catalytic enhancement (BMO) (fold over background); higher = more active; k-Seq, kA / k0A0; sequences stand for … in GGGAAUGGAUCCACAUCUACGAAUUC…UUCACUGCAGACUUGACGAAGCUG
Summary of the method: (§1)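 The uncatalyzed rate is the low-activity peak of a bimodal Gaussian fit, and catalytic enhancement is median kA divided by it. The kA values came from pseudo-first-order fits, with 1000 bootstraps, of per-sequence fraction reacted measured by streptavidin capture, triplicate qPCR and Illumina sequencing. Mutagenized RNA pools with a 21-nt variable region (0.43 μM) were reacted with each biotinyl-aminoacyl-oxazolone at 2–1250 μM in 50 μL HEPES/NaCl/KCl/MgCl2/CaCl2 buffer with 5% acetonitrile, pH 6.9–7.0, for 90 minutes at room temperature.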

biotinyl-Trp-oxazolone = assay: self-aminoacylation, catalytic enhancement (BWO) (fold over background); higher = more active; k-Seq, kA / k0A0; sequences stand for … in GGGAAUGGAUCCACAUCUACGAAUUC…UUCACUGCAGACUUGACGAAGCUG
Summary of the method: as §1

biotinyl-Leu-oxazolone = assay: self-aminoacylation, catalytic enhancement (BLO) (fold over background); higher = more active; k-Seq, kA / k0A0; sequences stand for … in GGGAAUGGAUCCACAUCUACGAAUUC…UUCACUGCAGACUUGACGAAGCUG
Summary of the method: as §1

biotinyl-Val-oxazolone = assay: self-aminoacylation, catalytic enhancement (BVO) (fold over background); higher = more active; k-Seq, kA / k0A0; sequences stand for … in GGGAAUGGAUCCACAUCUACGAAUUC…UUCACUGCAGACUUGACGAAGCUG
Summary of the method: as §1

biotinyl-Ile-oxazolone = assay: self-aminoacylation, catalytic enhancement (BIO) (fold over background); higher = more active; k-Seq, kA / k0A0; sequences stand for … in GGGAAUGGAUCCACAUCUACGAAUUC…UUCACUGCAGACUUGACGAAGCUG
Summary of the method: as §1

biotinyl-Phe-oxazolone = assay: self-aminoacylation, catalytic enhancement (BFO) (fold over background); higher = more active; k-Seq, kA / k0A0; sequences stand for … in GGGAAUGGAUCCACAUCUACGAAUUC…UUCACUGCAGACUUGACGAAGCUG
Summary of the method: as §1

Row | Sequence | self-aminoacylation (biotinyl-Met-oxazolone) | self-aminoacylation (biotinyl-Trp-oxazolone) | self-aminoacylation (biotinyl-Leu-oxazolone) | self-aminoacylation (biotinyl-Val-oxazolone) | self-aminoacylation (biotinyl-Ile-oxazolone) | self-aminoacylation (biotinyl-Phe-oxazolone)
1 | AAGUUUGCUCAGAGUCGCAAG [Fam3.1 aminoacylation ribozyme variant] | 0.922 | 0.953 | 0.715 | 0.8 | 0.812 | 0.857
2 | AAGUUUGCUCAUAGUCUCAAG [Fam3.1 aminoacylation ribozyme variant] | 0.869 | 0.98 | 0.977 | 0.901 | 0.872 | 1.98
3 | AAGUUUGCUCAUAUUCGCAAG [Fam3.1 aminoacylation ribozyme variant] | 0.912 | 0.812 | 0.934 | 0.828 | 0.957 | 1.05
4 | AAGUUUGCUGAUAGUCGAAAG [Fam3.1 aminoacylation ribozyme variant] | 1.19 | 1.22 | 1.07 | 0.869 | 1.14 | 1.37
5 | AAGUUUGCUUAUAGCCGCAAG [Fam3.1 aminoacylation ribozyme variant] | 0.698 | 0.793 | 0.71 | 0.658 | 0.776 | 1.36
6 | AAGUUUGCUUAUAGUCGCAAC [Fam3.1 aminoacylation ribozyme variant] | 0.941 | 0.697 | 0.84 | 0.895 | 0.973 | 1.04
7 | AAGUUUGCUUAUAUUCGCAAG [Fam3.1 aminoacylation ribozyme variant] | 0.952 | 1.13 | 0.929 | 0.987 | 0.973 | 0.841
8 | AAGUUUGCUUGUAGUCGCAAG [Fam3.1 aminoacylation ribozyme variant] | 0.732 | 0.911 | 0.707 | 0.819 | 0.724 | 1.09
9 | AAGUUUGGUAAUAGUUGCAAG [Fam3.1 aminoacylation ribozyme variant] | 1 | 1.07 | 0.941 | 0.952 | 1.19 | 1.46
10 | AAGUUUGUUAACAGUCGCAAG [Fam3.1 aminoacylation ribozyme variant] | 0.806 | 0.988 | 1.03 | 0.996 | 1.09 | 1.11
11 | AAGUUUGUUAAUAGCCGCAAG [Fam3.1 aminoacylation ribozyme variant] | 0.856 | 1.3 | 0.778 | 0.845 | 1.07 | 1.48
12 | AAGUUUGUUAAUAGUCGCAUG [Fam3.1 aminoacylation ribozyme variant] | 1.6 | 1.41 | 1.39 | 1.18 | 1.22 | 1.57
13 | AAGUUUGUUAUUAGUCGCAAG [Fam3.1 aminoacylation ribozyme variant] | 1.29 | 1.59 | 1.29 | 1.49 | 1.4 | 1.84
14 | AAGUUUUCUAAUACUCGCAAG [Fam3.1 aminoacylation ribozyme variant] | 1.13 | 1.1 | 1.16 | 1.23 | 1.41 | 1.08
15 | AAGUUUUCUAAUAGUCGUAAG [Fam3.1 aminoacylation ribozyme variant] | 1.16 | 1.48 | 1.05 | 1.26 | 1.19 | 2.29
16 | AAGUUUUCUACUAGUCGCAAG [Fam3.1 aminoacylation ribozyme variant] | 1.67 | 1.86 | 1.79 | 1.51 | 1.99 | 3.09
17 | AAGUUUUCUAUUAGUCGCAAG [Fam3.1 aminoacylation ribozyme variant] | 1.89 | 2.07 | 1.82 | 1.52 | 1.79 | 2.22
18 | AAUACCCUGGUCAUCGAGUCA [Fam2.1 aminoacylation ribozyme variant] | 0.534 | 0.305 | 0.5 | 0.673 | 0.607 | 0.749
19 | AAUCACAUAGGUCAUCGGGUG [Fam2.2 aminoacylation ribozyme variant] | 7.73 | 6.45 | 7.16 | 4.18 | 4.88 | 49.2
20 | AAUUUUCCUAAUAGUCGCAAG [Fam3.1 aminoacylation ribozyme variant] | 1.44 | 1.09 | 1.14 | 1.13 | 1.37 | 0.856
21 | AAUUUUGCAAAUAGUCGCAAG [Fam3.1 aminoacylation ribozyme variant] | 2.02 | 2.48 | 1.51 | 2.31 | 2.33 | 2.73
22 | AAUUUUGCUAAUAGACGCAAG [Fam3.1 aminoacylation ribozyme variant] | 0.927 | 0.904 | 0.814 | 1.02 | 1.25 | 1.6
23 | ACACACUUCAAGCAAUCGGCC [Fam1B.1 aminoacylation ribozyme variant] | 2.21 | 6.35 | 2.54 | 2.57 | 2.7 | 4
